# Measured data: PubChem BioAssay AID1259254 (NCATS, 2017)
# Purpose: 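Finding genes that stop cells copying their DNA twice in one cycle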 (primary screen)
# Cell system: human HCT116 colorectal cancer cells
# Knock-down reagent: single siRNA against human genes
# Timing: 3 days
# Measured: 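Nuclei stained with Hoechst and imaged; cell-cycle phase assigned by DNA content; G2 share scaled per plate, non-targeting siRNA 0%, GMNN siRNA 100%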
# Reading the numbers: G2 robust z-score and G2 cells, % of GMNN control: higher = more G2 cells, more excess DNA replication
# Active means: 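Active siRNAs have a G2 robust z of 5 or more median absolute deviations over the median, which in these data means about 38% or higher of GMNN control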
# Here is one part, drawn at random, of about 59,000 reagents tested. About 1,550 of all reagents (2.6%) were called active. 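G2 share is only a proxy for re-replication; each gene was hit by three separate siRNAs, and active genes were retested.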 Unmarked entries are inactive. The numbers tell different reagents against one gene apart. Not all columns of the deposit are shown. The record does not give: the amount of reagent.
gene symbol,siRNA no.,G2 robust z-score,"G2 cells, % of GMNN control"
RHOC (GeneID 389),1,-0.157,1.86
RHOC (GeneID 389),2,1.49,13.5
RHOC (GeneID 389),3,-0.906,-3.41
TNFSF8 (GeneID 944),1,1.74,15.2
TNFSF8 (GeneID 944),2,-0.362,0.422
TNFSF8 (GeneID 944),3,1.66,14.6
NID2 (GeneID 22795),1,-0.00876,2.91
NID2 (GeneID 22795),2,0.269,4.86
NID2 (GeneID 22795),3,0.187,4.28
GARIN5B (GeneID 284418),1,0.724,8.06
GARIN5B (GeneID 284418),2,5.12 (active),39
GARIN5B (GeneID 284418),3,0.000659,2.97
ZNF829 (GeneID 374899),1,1.73,15.1
ZNF829 (GeneID 374899),2,0.201,4.38
ZNF829 (GeneID 374899),3,0.445,6.1

Next part, starting with the last 2 of the part before.
gene symbol,siRNA no.,G2 robust z-score,"G2 cells, % of GMNN control"
ZNF829 (GeneID 374899),2,0.201,4.38
ZNF829 (GeneID 374899),3,0.445,6.1
PCDH11Y (GeneID 83259),1,-0.442,-0.143
PCDH11Y (GeneID 83259),2,1.02,10.1
PCDH11Y (GeneID 83259),3,-0.179,1.71
UPF3A (GeneID 65110),1,-0.304,0.828
UPF3A (GeneID 65110),2,-0.319,0.721
UPF3A (GeneID 65110),3,0.529,6.69
MC5R (GeneID 4161),1,-0.72,-2.1
MC5R (GeneID 4161),2,-0.454,-0.227
MC5R (GeneID 4161),3,1.75,15.3
KIF13B (GeneID 23303),1,6.75 (active),50.5
KIF13B (GeneID 23303),2,0.299,5.07
KIF13B (GeneID 23303),3,0.18,4.24
RNF115 (GeneID 27246),1,2.77,22.4
RNF115 (GeneID 27246),2,0.653,7.56
RNF115 (GeneID 27246),3,2.94,23.6
